Measurements taken from the supplement of paper PMC11006884.
Most of the targets with a hit are listed elsewhere, so they are rarer here than in the full data. Single values of this set are uncertain. The entries are a selection whose mix differs from that of the whole data set.

By UniProt entry, the sequences of proteins in these tests, tags left out. Where a name states a change or a piece, a line headed by the entry shows the natural chain unless it says otherwise.
UniProt Q9UGI8: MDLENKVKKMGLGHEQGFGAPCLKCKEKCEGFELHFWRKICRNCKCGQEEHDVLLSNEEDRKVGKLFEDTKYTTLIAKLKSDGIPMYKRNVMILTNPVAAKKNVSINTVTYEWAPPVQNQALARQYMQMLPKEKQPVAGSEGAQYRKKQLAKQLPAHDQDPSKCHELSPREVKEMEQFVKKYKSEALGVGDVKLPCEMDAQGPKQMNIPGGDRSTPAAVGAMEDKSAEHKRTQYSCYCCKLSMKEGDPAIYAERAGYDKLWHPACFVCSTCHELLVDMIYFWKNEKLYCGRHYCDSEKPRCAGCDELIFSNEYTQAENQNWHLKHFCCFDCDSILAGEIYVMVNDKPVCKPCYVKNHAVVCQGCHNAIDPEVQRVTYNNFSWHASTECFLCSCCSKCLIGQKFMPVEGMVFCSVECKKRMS
UniProt Q9UBQ5, whole entry: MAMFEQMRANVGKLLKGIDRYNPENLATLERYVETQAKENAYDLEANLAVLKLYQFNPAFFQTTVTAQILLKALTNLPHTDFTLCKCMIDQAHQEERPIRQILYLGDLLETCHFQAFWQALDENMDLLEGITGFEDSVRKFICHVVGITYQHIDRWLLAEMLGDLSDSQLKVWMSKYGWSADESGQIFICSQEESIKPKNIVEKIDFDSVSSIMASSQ
UniProt Q9UBT2: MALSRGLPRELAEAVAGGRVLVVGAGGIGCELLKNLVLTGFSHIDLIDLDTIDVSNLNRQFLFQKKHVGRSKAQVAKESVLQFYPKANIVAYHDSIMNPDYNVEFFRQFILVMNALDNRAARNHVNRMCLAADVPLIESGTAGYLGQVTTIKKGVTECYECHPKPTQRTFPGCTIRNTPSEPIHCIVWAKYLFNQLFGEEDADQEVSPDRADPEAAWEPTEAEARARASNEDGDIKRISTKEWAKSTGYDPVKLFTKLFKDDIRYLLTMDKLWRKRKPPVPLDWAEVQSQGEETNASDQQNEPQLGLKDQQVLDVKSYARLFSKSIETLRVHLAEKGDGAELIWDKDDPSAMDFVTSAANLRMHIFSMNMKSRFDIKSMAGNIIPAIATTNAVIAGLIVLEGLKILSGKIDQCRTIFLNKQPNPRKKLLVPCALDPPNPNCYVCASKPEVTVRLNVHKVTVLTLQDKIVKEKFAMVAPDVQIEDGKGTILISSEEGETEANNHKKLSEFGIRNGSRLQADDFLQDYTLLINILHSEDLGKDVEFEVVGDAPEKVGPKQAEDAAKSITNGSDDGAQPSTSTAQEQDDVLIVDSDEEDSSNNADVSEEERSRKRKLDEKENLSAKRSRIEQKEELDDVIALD
UniProt Q9P0U4, whole entry: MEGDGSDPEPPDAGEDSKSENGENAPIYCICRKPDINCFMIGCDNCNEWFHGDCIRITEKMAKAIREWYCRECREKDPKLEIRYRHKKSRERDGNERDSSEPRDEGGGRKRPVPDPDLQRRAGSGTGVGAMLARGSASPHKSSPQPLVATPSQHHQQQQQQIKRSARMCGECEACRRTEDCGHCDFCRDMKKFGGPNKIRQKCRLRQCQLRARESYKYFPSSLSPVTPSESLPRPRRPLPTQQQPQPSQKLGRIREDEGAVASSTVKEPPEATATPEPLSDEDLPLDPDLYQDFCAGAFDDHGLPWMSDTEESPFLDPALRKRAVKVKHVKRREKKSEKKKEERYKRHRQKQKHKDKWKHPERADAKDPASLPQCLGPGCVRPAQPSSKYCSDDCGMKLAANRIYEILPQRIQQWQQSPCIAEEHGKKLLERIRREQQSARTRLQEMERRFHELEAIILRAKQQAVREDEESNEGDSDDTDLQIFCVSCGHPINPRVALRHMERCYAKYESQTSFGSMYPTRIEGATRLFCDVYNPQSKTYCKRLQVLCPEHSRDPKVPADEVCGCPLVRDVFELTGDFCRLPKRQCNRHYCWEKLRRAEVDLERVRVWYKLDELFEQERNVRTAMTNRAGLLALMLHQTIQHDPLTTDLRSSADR
UniProt Q9NZJ4: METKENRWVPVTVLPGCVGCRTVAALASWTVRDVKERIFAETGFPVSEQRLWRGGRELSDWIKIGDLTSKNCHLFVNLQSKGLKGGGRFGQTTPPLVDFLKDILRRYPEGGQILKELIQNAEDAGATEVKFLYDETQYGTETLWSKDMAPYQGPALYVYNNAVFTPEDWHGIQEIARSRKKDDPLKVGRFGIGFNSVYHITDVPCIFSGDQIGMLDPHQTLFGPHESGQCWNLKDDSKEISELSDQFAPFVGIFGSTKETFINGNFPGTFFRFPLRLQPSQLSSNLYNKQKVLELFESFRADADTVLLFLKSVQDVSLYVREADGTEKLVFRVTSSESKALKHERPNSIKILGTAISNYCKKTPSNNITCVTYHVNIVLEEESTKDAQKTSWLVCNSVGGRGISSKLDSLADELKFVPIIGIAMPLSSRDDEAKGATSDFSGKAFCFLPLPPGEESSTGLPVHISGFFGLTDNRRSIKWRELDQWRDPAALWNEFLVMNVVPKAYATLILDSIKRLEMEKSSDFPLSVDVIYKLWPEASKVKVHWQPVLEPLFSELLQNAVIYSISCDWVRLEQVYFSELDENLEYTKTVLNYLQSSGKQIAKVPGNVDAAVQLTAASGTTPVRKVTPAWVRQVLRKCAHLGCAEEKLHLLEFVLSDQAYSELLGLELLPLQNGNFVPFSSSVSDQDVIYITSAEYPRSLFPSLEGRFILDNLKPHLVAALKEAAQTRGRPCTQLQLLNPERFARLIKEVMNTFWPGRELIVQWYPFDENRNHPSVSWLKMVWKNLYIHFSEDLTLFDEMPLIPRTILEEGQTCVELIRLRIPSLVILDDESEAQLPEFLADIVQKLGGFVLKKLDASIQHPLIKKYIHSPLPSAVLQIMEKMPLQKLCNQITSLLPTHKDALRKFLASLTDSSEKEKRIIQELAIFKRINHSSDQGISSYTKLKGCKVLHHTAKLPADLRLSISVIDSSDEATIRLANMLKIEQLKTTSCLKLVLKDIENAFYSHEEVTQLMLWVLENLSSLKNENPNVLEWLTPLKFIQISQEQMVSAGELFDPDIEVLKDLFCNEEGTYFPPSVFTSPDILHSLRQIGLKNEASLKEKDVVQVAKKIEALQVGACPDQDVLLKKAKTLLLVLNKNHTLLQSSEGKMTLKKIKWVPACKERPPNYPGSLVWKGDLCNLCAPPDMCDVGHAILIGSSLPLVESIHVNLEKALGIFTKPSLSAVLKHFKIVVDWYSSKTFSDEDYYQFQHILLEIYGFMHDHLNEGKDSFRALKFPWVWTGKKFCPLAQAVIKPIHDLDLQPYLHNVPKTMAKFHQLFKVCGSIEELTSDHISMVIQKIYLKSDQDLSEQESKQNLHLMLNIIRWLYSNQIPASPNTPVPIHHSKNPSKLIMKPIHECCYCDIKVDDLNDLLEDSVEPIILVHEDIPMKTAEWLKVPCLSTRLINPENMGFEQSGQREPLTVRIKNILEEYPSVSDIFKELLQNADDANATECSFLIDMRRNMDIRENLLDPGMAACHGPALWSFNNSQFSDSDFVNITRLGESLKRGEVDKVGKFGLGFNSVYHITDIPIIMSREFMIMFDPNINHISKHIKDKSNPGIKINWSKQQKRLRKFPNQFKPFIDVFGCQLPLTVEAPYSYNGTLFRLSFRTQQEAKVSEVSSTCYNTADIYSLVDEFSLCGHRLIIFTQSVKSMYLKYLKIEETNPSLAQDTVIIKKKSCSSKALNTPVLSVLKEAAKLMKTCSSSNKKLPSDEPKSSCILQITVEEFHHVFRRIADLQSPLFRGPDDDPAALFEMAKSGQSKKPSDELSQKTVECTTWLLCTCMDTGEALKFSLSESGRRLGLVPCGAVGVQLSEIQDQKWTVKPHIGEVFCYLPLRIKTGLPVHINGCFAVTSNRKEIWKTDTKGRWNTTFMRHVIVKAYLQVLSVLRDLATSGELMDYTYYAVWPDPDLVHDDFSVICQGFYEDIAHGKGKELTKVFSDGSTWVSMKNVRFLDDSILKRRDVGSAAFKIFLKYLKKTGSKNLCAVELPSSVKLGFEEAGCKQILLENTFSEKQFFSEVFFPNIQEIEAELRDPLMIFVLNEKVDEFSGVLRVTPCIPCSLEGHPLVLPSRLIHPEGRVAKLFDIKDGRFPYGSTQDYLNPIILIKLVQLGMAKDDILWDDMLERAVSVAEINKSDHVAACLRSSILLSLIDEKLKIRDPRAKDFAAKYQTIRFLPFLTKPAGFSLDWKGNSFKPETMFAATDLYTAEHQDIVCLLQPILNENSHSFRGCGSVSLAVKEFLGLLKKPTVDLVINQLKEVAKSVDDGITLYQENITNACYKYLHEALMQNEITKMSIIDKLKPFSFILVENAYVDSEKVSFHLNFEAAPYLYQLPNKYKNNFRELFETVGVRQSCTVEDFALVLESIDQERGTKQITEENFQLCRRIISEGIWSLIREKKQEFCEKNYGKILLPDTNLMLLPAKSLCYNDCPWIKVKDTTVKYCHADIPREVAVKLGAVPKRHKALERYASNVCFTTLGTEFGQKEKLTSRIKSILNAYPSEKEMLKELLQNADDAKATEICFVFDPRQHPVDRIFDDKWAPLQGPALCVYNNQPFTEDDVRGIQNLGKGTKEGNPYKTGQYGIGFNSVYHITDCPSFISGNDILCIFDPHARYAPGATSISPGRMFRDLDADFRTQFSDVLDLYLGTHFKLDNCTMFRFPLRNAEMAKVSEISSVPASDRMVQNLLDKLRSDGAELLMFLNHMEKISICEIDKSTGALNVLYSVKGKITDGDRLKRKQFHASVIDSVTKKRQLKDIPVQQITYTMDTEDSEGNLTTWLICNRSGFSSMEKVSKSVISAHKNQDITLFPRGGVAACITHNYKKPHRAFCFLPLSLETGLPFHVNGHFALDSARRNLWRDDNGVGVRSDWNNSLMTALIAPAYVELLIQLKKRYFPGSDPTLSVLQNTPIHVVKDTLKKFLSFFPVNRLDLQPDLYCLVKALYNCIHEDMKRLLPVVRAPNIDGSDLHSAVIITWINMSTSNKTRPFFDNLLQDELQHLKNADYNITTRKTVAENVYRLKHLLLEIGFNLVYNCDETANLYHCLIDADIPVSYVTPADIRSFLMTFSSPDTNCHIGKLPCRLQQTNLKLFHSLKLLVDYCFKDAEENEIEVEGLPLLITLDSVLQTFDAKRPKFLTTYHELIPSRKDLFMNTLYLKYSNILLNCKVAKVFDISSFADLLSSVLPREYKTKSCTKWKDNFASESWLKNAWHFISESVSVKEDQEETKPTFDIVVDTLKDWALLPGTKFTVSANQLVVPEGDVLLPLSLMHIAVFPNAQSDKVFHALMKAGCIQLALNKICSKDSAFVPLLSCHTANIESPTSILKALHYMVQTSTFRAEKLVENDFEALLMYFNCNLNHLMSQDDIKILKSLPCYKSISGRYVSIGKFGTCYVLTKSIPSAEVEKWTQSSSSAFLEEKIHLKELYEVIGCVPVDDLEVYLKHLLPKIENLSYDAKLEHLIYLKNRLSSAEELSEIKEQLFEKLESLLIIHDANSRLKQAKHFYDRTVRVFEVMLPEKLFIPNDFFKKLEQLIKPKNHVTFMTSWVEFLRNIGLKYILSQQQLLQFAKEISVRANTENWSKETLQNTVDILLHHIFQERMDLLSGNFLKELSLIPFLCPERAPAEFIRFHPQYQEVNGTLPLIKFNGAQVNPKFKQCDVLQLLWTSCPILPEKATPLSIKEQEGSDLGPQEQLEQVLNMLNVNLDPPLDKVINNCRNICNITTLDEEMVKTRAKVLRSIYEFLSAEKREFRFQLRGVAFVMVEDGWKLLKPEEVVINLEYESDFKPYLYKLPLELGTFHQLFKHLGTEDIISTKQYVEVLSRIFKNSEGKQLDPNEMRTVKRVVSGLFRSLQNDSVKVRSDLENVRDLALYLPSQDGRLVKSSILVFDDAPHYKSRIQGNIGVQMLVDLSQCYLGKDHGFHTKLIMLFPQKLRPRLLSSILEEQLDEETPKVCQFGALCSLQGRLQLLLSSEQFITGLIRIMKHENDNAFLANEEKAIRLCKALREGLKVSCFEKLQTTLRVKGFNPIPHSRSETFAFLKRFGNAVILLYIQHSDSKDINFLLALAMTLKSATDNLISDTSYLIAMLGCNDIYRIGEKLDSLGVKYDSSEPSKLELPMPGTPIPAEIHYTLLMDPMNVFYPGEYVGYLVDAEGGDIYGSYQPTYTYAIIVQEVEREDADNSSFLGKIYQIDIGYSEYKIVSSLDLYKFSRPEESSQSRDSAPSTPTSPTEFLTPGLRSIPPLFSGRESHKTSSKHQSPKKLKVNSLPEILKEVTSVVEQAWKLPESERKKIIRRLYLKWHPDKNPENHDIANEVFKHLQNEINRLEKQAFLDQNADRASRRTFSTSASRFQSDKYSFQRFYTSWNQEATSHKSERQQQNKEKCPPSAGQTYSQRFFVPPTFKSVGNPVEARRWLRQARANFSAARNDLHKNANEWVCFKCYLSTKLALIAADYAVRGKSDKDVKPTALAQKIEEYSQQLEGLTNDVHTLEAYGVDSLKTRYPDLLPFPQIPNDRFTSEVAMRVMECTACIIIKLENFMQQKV

The targets below were run with COC(=O)/C=C/c1ccccc1 [methyl cinnamate] (assay: log2 ratio of iodoacetamide-alkyne labeling of the cysteine site, DMSO over compound (competition); higher = stronger covalent engagement of the cysteine by the compound, active = 1 or more). Conditions: 500 µM; treatment time 1 h; system: HEK293T cell lysate.
Method in brief: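 HEK293T lysate (2 mg/mL) was treated with DMSO or electrophile (500 µM, 1 h, ambient temperature), then iodoacetamide alkyne (1 h), clicked to sCIP-TMT reagents, pooled, trypsin-digested overnight at 37 °C, streptavidin-enriched and acid-eluted. Peptides were run on Orbitrap Eclipse LC-MS/MS with FAIMS and quantified in FragPipe. The log2 competition ratio per cysteine is mean control-channel over mean compound-channel reporter intensity. Duplicate channels and three replicates were used, and cysteines quantified in only one replicate were excluded.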

log2 ratio of iodoacetamide-alkyne labeling, inactive:
ATXN10 C405 (UniProt Q9UBB4) 0.308
GNL3L C342 (UniProt Q9NVN8) 0.194
TES C412 (UniProt Q9UGI8) -0.0167
EIF3K C85 (UniProt Q9UBQ5) 0.0884
ANKFY1 C1159 (UniProt Q9P2R3) 0.144
BSDC1 C99 (UniProt Q9NW68) 0.359
FAM105A C177 (UniProt Q9NUU6) 0.163
UBA2 C413 (UniProt Q9UBT2) -0.282
BCLAF1 C688 (UniProt Q9NYF8) 0.279
COPS7A C110 (UniProt Q9UBW8) -0.198
UBA2 C185 (UniProt Q9UBT2) 0.0878
MAT2B C17 (UniProt Q9NZL9) 0.247
MRPS18A C186 (UniProt Q9NVS2) -0.0367
CCDC88C C1520 (UniProt Q9P219) 0.378
CXXC1 C531 (UniProt Q9P0U4) 0.09
SMPD4 C614 (UniProt Q9NXE4) -0.29
ZMYM2 C852 (UniProt Q9UBW7) 0.353
SACS C3756 (UniProt Q9NZJ4) 0.159
SMPD4 C698 (UniProt Q9NXE4) -0.0752
UBA2 C30 (UniProt Q9UBT2) 0.167
SDAD1 C87 (UniProt Q9NVU7) 0.307

Random excerpt: 2 entries already listed, in no set order.
log2 ratio of iodoacetamide-alkyne labeling, inactive:
UBA2 C30 (UniProt Q9UBT2) 0.167
FAM105A C177 (UniProt Q9NUU6) 0.163
